Laboratory results reported in publication PMC8874776.
These are yes or no findings as the source states them, for the method shown. Binding calls can cover weak binding; strength is not graded here.

By UniProt entry, the sequences of proteins in these tests, tags left out. Where a name states a change or a piece, a line headed by the entry shows the natural chain unless it says otherwise.
UniProt Q08466: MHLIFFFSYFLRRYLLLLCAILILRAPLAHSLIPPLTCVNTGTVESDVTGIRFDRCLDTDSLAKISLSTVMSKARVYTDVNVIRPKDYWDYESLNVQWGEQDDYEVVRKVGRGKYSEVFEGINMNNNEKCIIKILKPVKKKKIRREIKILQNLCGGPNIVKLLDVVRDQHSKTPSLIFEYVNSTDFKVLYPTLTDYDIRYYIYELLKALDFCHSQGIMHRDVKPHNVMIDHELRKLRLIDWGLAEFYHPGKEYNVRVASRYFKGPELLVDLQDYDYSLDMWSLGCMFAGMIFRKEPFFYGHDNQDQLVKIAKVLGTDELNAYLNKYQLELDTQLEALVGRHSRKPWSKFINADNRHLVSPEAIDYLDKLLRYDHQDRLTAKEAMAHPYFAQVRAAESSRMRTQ
UniProt Q08467: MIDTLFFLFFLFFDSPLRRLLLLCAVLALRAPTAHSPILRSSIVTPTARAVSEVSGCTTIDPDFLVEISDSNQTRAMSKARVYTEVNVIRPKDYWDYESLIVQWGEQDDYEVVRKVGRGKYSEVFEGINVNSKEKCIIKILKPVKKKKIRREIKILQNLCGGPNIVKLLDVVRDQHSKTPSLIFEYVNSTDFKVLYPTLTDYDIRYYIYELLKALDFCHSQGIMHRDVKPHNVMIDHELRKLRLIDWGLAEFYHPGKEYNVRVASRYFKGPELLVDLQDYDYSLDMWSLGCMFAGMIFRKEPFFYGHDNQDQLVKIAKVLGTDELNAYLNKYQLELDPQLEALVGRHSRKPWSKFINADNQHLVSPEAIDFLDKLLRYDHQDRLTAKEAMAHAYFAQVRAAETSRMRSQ

Target: PRU2 in the vector pBT3-SUC (Arabidopsis thaliana) (UniProt Q6NQG7)
Experiment: two-hybrid; pairwise test: CK2 subunits in pPR3-N co-transformed with pBT3-SUC-PRU2 into yeast strain NMY51, SD/-Leu/-Trp/-His/-Ade medium

binding | Substance
binds | full-length CK2α2 in the vector pPR3-N (from UniProt Q08466)
binds | full-length CK2α1 in the vector pPR3-N (from UniProt Q08467)
